The list shows only some results of the screen, not a fair sample: it gathers tests that were run many times, whatever their T/C, doses with no T/C, and many T/C values between a quarter and a half above the control. Further doses and runs are listed elsewhere. T/C is the treated group as % of the vehicle group. Some entries give survivors of the animals treated and no T/C: the source files T/C as zero there, which appears to mark a toxic dose or a test without result, not a measured value. Some doses without a T/C left all or most animals alive at the check, yet need not have been tolerated: the source hardly ever lists a survival T/C far under the control, and the zero likely stands for such cases as well. Survivors were counted at the toxicity check, usually on the fifth day, unless a day is given; later deaths do not show. Schedules are NCI's codes, read here as Q, the interval in days (D) or hours (H), X, the number of doses. Where survival is the endpoint, this PubChem deposit counts one and a half times the control or more as active, and values a quarter to a half above the control carry no call in these data; other NCI protocols may use other cut-offs. Some entries were tested several times; the values are given in rising order. Some T/C values carry the count of animals alive at the toxicity check (mostly the fifth day); where none is given, no animal had died by that day. Where a SMILES comes first, the peptide text is derived from it. [ ]: non-standard residue; d: D form. The star is where a group is joined. ξ: configuration not given here. Cbz = O=C(OCc1ccccc1)*; OBn = c1ccc(CO*)cc1; Bn = c1ccc(C*)cc1; ξC = NC(CS)C(=O)O
Tested on: B6C3F1 mice, B16 melanoma ip, median survival T/C
Assay: NCI In Vivo Anticancer Drug Screen. Data for tumor model B16 Melanoma (intraperitoneal) in B6C3F1 mice
Details: T/C endpoint: median survival time, higher T/C = longer survival
Method: The antitumor activity of compounds was measured in mice bearing transplantable tumors. Survival or tumor size were measured and the results are expressed as the measurement made in the treated group (T) divided by the measurement made in the vehicle treated control group (C). The tumor model used in this assay is B16 Melanoma (intraperitoneal) in B6C3F1 mice

[1] = dose: 50.0 mg/kg/injection, schedule: Q01DX009 (ip), vehicle: Klucel (hydroxypropylcellulose) (HPC)

COc1cc(NS(C)(=O)=O)ccc1Nc1c2ccccc2nc2ccccc12
T/C (dose: 0.25 mg/kg/injection, schedule: Q01DX009 (ip), vehicle: other): 132 and 138 % of control | T/C (dose: 0.5 mg/kg/injection, schedule: Q01DX009 (ip), vehicle: other): 142 % of control | T/C (dose: 1.0 mg/kg/injection, schedule: Q01DX009 (ip), vehicle: other, evaluated on day 5): 159 % of control | T/C (dose: 1.0 mg/kg/injection, schedule: Q01DX009 (ip), vehicle: other, evaluated on day 45): 177 and 179 % of control | T/C (dose: 1.0 mg/kg/injection, schedule: Q01DX009 (ip), vehicle: other, evaluated on day 50): 177 % of control | T/C (dose: 1.0 mg/kg/injection, schedule: Q01DX009 (ip), vehicle: saline with Tween-80): 148 % of control | T/C (dose: 1.0 mg/kg/injection, schedule: Q01DX009 (ip), vehicle: saline, evaluated on day 5): 122 [8 of 9 alive], 143, 156 % of control | T/C (dose: 1.0 mg/kg/injection, schedule: Q01DX009 (ip), vehicle: saline, evaluated on day 60): 111 and 123 % of control | survivor count (dose: 2.0 mg/kg/injection, schedule: Q01DX005 (ip), vehicle: other): 10 of 10 | survivor count (dose: 2.0 mg/kg/injection, schedule: Q01DX005 (iv), vehicle: other): 10 of 10 | T/C (dose: 2.0 mg/kg/injection, schedule: Q01DX009 (ip), vehicle: other, evaluated on day 5): 168 % of control | T/C (dose: 2.0 mg/kg/injection, schedule: Q01DX009 (ip), vehicle: other, evaluated on day 45): 181 and 230 % of control | T/C (dose: 2.0 mg/kg/injection, schedule: Q01DX009 (ip), vehicle: other, evaluated on day 50): 225 % of control | T/C (dose: 2.0 mg/kg/injection, schedule: Q01DX009 (ip), vehicle: saline, evaluated on day 5): 127 [6 of 8 alive], 144, 166, 186 % of control | T/C (dose: 2.0 mg/kg/injection, schedule: Q01DX009 (ip), vehicle: saline, evaluated on day 60): 126 and 148 % of control | survivor count (dose: 4.0 mg/kg/injection, schedule: Q01DX005 (ip), vehicle: other): 8 of 10 | survivor count (dose: 4.0 mg/kg/injection, schedule: Q01DX005 (iv), vehicle: clinical formulation): 10 of 10 | survivor count (dose: 4.0 mg/kg/injection, schedule: Q01DX005 (iv), vehicle: other): 7 of 10 | T/C (dose: 4.0 mg/kg/injection, schedule: Q01DX009 (ip), vehicle: other, evaluated on day 5): 171 % of control | T/C (dose: 4.0 mg/kg/injection, schedule: Q01DX009 (ip), vehicle: other, evaluated on day 45): 138 % of control | T/C (dose: 4.0 mg/kg/injection, schedule: Q01DX009 (ip), vehicle: other, evaluated on day 50): 115 % of control | survivor count (dose: 4.0 mg/kg/injection, schedule: Q01DX009 (ip), vehicle: other): 10 of 10 | T/C (dose: 8.0 mg/kg/injection, schedule: Q01DX001 (ip), vehicle: clinical formulation): 145 % of control | survivor count (dose: 8.0 mg/kg/injection, schedule: Q01DX005 (ip), vehicle: clinical formulation): 10 of 10 | survivor count (dose: 8.0 mg/kg/injection, schedule: Q01DX005 (ip), vehicle: other): 9 of 10 | survivor count (dose: 8.0 mg/kg/injection, schedule: Q01DX005 (iv), vehicle: clinical formulation): 9 of 10 | survivor count (dose: 8.0 mg/kg/injection, schedule: Q01DX005 (iv), vehicle: other): 8 of 10 | survivor count (dose: 8.0 mg/kg/injection, schedule: Q01DX009 (ip), vehicle: other): 9 of 10 | T/C (dose: 16.0 mg/kg/injection, schedule: Q01DX001 (ip), vehicle: clinical formulation): 144 % of control | survivor count (dose: 16.0 mg/kg/injection, schedule: Q01DX005 (ip), vehicle: clinical formulation): 6 of 10 | survivor count (dose: 16.0 mg/kg/injection, schedule: Q01DX005 (iv), vehicle: clinical formulation): 0 of 10 | survivor count (dose: 16.0 mg/kg/injection, schedule: Q01DX005 (oral), vehicle: other): 6 of 10 | survivor count (dose: 16.0 mg/kg/injection, schedule: Q01DX009 (ip), vehicle: saline with Tween-80): 10 of 10 | survivor count (dose: 32.0 mg/kg/injection, schedule: Q01DX001 (ip), vehicle: clinical formulation): 2 of 10 | survivor count (dose: 32.0 mg/kg/injection, schedule: Q01DX001 (iv), vehicle: clinical formulation): 9 of 10 | survivor count (dose: 64.0 mg/kg/injection, schedule: Q01DX001 (ip), vehicle: clinical formulation): 0 of 10 | survivor count (dose: 64.0 mg/kg/injection, schedule: Q01DX001 (iv), vehicle: clinical formulation): 0 of 10

S=C(NCNC(=S)c1ccncc1)c1ccncc1
survivor count (dose: 800.0 mg/kg/injection, schedule: Q01DX009 (ip), vehicle: saline with Tween-80): 4 of 10

CC(=O)[O][Pb]([O]C(C)=O)([c]1ccccc1)[c]1ccccc1
survivor count (dose: 100.0 mg/kg/injection, schedule: Q01DX009 (ip), vehicle: Klucel (hydroxypropylcellulose) (HPC)): 9 of 10 | survivor count (dose: 200.0 mg/kg/injection, schedule: Q01DX009 (ip), vehicle: Klucel (hydroxypropylcellulose) (HPC)): 6 of 10

Nc1ncnc2c1ncn2C1OCC(O)C1O (stereo not given)
T/C (dose: 12.5 mg/kg/injection, schedule: Q01DX009 (ip), vehicle: saline): 144 % of control | T/C (dose: 25.0 mg/kg/injection, schedule: Q01DX009 (ip), vehicle: saline): 130 % of control | T/C (dose: 50.0 mg/kg/injection, schedule: Q01DX009 (ip), vehicle: saline, evaluated on day 50): 125 % of control | T/C (dose: 50.0 mg/kg/injection, schedule: Q01DX009 (ip), vehicle: saline, evaluated on day 60): 135 % of control | T/C (dose: 50.0 mg/kg/injection, schedule: Q01DX009 (ip), vehicle: suspension in saline): 131 % of control | T/C (dose: 100.0 mg/kg/injection, schedule: Q01DX009 (ip), vehicle: saline, evaluated on day 50): 129 % of control | T/C (dose: 100.0 mg/kg/injection, schedule: Q01DX009 (ip), vehicle: saline, evaluated on day 60): 149 % of control | survivor count (dose: 200.0 mg/kg/injection, schedule: Q01DX009 (ip), vehicle: suspension in saline): 10 of 10

Clc1ccc(C[P+](c2ccccc2)(c2ccccc2)c2ccccc2)cc1Cl
survivor count (dose: 25.0 mg/kg/injection, schedule: Q01DX009 (ip), vehicle: Klucel (hydroxypropylcellulose) (HPC)): 0 of 10 | survivor count [1]: 0 of 10

CC#CCOCC(O)CCl (stereo not given)
survivor count (dose: 400.0 mg/kg/injection, schedule: Q01DX009 (ip), vehicle: suspension in saline): 10 of 10

COc1ccc2c(NCCCCCCNc3c4ccccc4nc4cc(OC)ccc34)c3ccccc3nc2c1
survivor count (dose: 156.0 micrograms/kg/injection, schedule: Q01DX009 (ip), vehicle: lactic acid): 10 of 10 | survivor count (dose: 313.0 micrograms/kg/injection, schedule: Q01DX009 (ip), vehicle: lactic acid): 7 of 10

COc1cc2cc(c1Cl)N(C)C(=O)CC(OC(=O)C(C)C)C1(C)OC1C(C)C1CC(O)(NC(=O)O1)C(OC)/C=C/C=C(C)C2 (stereo not given)
T/C (dose: 6.2 micrograms/kg/injection, schedule: Q01DX009 (ip), vehicle: saline + alcohol): 134 % of control | T/C (dose: 12.5 micrograms/kg/injection, schedule: Q01DX009 (ip), vehicle: saline + alcohol): 140 % of control | T/C (dose: 25.0 micrograms/kg/injection, schedule: Q01DX009 (ip), vehicle: saline + alcohol): 140 % of control | survivor count (dose: 50.0 micrograms/kg/injection, schedule: Q01DX009 (ip), vehicle: saline + alcohol): 8 of 10 | survivor count (dose: 100.0 micrograms/kg/injection, schedule: Q01DX009 (ip), vehicle: saline + alcohol): 3 of 10 | survivor count (dose: 200.0 micrograms/kg/injection, schedule: Q01DX009 (ip), vehicle: saline + alcohol): 0 of 10

NCC(O)c1ccc(O)c(O)c1 (stereo not given)
T/C (dose: 0.75 mg/kg/injection, schedule: Q01DX009 (ip), vehicle: suspension in saline): 125 % of control | T/C (dose: 1.5 mg/kg/injection, schedule: Q01DX009 (ip), vehicle: suspension in saline): 134 % of control [9 of 10 alive]

O=C(CNC(=O)C(CSCc1ccccc1)NC(=O)OCc1ccccc1)NCC(=O)OCc1ccccc1 (stereo not drawn) (Cbz-[ξC](Bn)-Gly-Gly-OBn)
survivor count [1]: 10 of 10

NC1(C(=O)O)CCCc2ccc(N(CCCl)CCCl)cc21 (stereo not given)
T/C (dose: 5.0 mg/kg/injection, schedule: Q01DX009 (ip), vehicle: saline): 125 % of control | T/C (dose: 20.0 mg/kg/injection, schedule: Q01DX009 (ip), vehicle: saline with Tween-80): 146 % of control | survivor count (dose: 40.0 mg/kg/injection, schedule: Q01DX009 (ip), vehicle: saline with Tween-80): 9 of 10
